Results on 1 molecule are retold here after article PMC11547375, “Peptide Dimerization as a Strategy for the Development of Antileishmanial Compounds” (Molecules, 2024).

Positions of bridges follow the written chain, without caps; N, C: chain ends. Residues, ends and D or L forms follow the SMILES beside them. Chains are numbered I, II in the order given.

This data set relates to L. mexicana amastigotes. Format: cell-based, Leishmania mexicana. The protocol: Macrophages were sourced from the peritoneal cavity of Swiss mice using the methodology outlined by de Almeida et al.. Anti-promastigote and anti-amastigote assays of L. mexicana and L. amazonensis and their cytotoxic activity were conducted as previously described. […] Cytotoxicity for the host cells and the protozoan species was compared and expressed as the selectivity index (SI), calculated as the ratio of the CC50 for macrophages to the IC50 for the protozoan species.

Take `CC[C@H](C)[C@H](NC(=O)CNC(=O)[C@H](CO)NC(=O)[C@H](CC(C)C)NC(=O)[C@@H](N)Cc1ccccc1)C(=O)N[C@H](C(=O)NCC(=O)N[C@@H](CCSC)C(=O)N[C@@H](CC(C)C)C(=O)NCC(=O)N[C@@H](CCCCN)C(=O)N[C@@H](CC(C)C)C(=O)N[C@@H](Cc1ccccc1)C(=O)NCCCC[C@H](NC(=O)[C@H](Cc1ccccc1)NC(=O)[C@H](CC(C)C)NC(=O)[C@H](CCCCN)NC(=O)CNC(=O)[C@H](CC(C)C)NC(=O)[C@H](CCSC)NC(=O)CNC(=O)[C@@H](NC(=O)[C@@H](NC(=O)CNC(=O)[C@H](CO)NC(=O)[C@H](CC(C)C)NC(=O)[C@@H](N)Cc1ccccc1)[C@@H](C)CC)C(C)C)C(N)=O)C(C)C` [(TSHa)2K] (I: H-FLSGIVGMLGKLFK-NH2 / II: H-FLSGIVGMLGKLF; amide I:14-II:C; N-terminus assumed): under “CC50 macrophages / IC50 L. mexicana amastigote, 24 h”, the “SI Amastigote 24 h of Treatment” value was > 1724. Further, the “SI Amastigote 48 h of Treatment” value (CC50 macrophages / IC50 L. mexicana amastigote, 48 h) was >2127. Also, the “SI times higher than control drug Amp B” value (L. mexicana amastigote, vs Amp B (SI = 38)) is on record as “approximately 45 times”. Where the note is “L. mexicana, vs TSHa”, the “times more selective than the monomer” value is ~9 times.
